# Primary screen of a compound library

Sequences of proteins named here, by UniProt entry; tags and fusion partners are left off.
UniProt P9WFT3, whole entry: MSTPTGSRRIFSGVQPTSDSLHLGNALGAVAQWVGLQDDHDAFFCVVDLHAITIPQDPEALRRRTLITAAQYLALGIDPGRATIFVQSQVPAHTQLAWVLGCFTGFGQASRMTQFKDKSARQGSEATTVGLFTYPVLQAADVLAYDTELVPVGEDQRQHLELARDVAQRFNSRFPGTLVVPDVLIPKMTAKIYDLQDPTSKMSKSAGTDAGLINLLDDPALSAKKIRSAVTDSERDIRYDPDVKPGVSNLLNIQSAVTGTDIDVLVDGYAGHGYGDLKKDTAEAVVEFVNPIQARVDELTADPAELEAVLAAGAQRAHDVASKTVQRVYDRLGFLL
UniProt P9WPC5, whole entry: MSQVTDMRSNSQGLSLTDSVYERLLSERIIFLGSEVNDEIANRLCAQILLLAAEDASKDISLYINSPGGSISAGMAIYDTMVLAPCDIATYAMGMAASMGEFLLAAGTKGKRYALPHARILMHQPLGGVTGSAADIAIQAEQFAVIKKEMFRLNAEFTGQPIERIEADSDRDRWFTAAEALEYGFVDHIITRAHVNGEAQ
UniProt P9WPC3, whole entry partner: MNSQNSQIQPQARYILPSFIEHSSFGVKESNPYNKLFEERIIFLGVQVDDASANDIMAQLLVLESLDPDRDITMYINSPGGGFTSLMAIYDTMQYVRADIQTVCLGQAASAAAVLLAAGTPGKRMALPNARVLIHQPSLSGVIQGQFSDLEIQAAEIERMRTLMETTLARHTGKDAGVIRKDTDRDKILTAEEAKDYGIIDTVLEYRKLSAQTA

From ChEMBL document CHEMBL3988442, “University of Dundee, Small-Polar-MMV Screening Library” (2021).

MtTrpRS: 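Enzyme assay of tryptophanyl-tRNA synthetase; the read-out is not stated. Target: Tryptophan-tRNA ligase, Mycobacterium tuberculosis (UniProt P9WFT3). Concentration: 10 µM. Direction is not recorded; retested compounds ran higher, which suggests that high means inhibition. About 65,000 compounds were tested under these conditions; 0.098% (about 64) showed 50% or more at least once.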
ClpP1P2: 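Protease assay of ClpP1P2, read by the AMC dye that it sets free. Target: ClpP1P2, Mycobacterium tuberculosis (UniProt P9WPC5 and UniProt P9WPC3). Concentration: 50 µM. Higher reads as stronger inhibition, judged from the few compounds that gave an IC50. Most other retested compounds had strongly negative values. Of about 69,000 compounds tested this way, about 10 (0.015%) reached 50% or more in at least one test.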

Each number is a percent effect as filed. The controls that fix the scale are not given in the record; negative values are as filed. The compounds are a random part of those screened.

* Cc1ccccc1CC(C)NC(=O)Nc1cnn(CC(N)=O)c1 (stereo unspecified) | MtTrpRS: -3.067%; ClpP1P2: 0.46%
* C1CC(CN2C[C@@H]3C[C@@H](c4nnc(C5CC5)o4)O[C@@H]3C2)CCO1 | MtTrpRS: -7.181%; ClpP1P2: -5.553%
* CC(C)[C@H]1CN(C(=O)CO)C[C@@H]1N(C)C | MtTrpRS: -3.446%; ClpP1P2: 1.704%
* CC(C)c1noc(CN2CCCC2c2noc(C(C)C)n2)n1 (stereo unspecified) | MtTrpRS: -2.24%; ClpP1P2: -1.3%
* CC(O)CN(C)C(=O)CCNC(=O)OC(C)(C)C (stereo unspecified) | MtTrpRS: 4.699%; ClpP1P2: -16.49%
* Cc1cc(C)cc(OCCNC(=O)C(C)Sc2nncn2C)c1 (stereo unspecified) | MtTrpRS: 0.6261%; ClpP1P2: 9.453%
* CO[C@@H]1CCN(S(=O)(=O)N(C)C)[C@@H]2CN(Cc3cccnc3)C[C@@H]21 | MtTrpRS: -5.007%; ClpP1P2: 8.414%
* Cc1cnn(CC2CCCCN2Cc2nccn2CC(F)(F)F)c1 (stereo unspecified) | MtTrpRS: -4.373%; ClpP1P2: -7.997%
* CCOCCC1(CNC(=O)c2ccsc2)CCC1 | MtTrpRS: -4.008%; ClpP1P2: -8.222%
* CCn1c(=O)c2sccc2n(CC(=O)Nc2cccc(Cl)c2)c1=O | MtTrpRS: 2.506%; ClpP1P2: -4.511%
* COc1ccc(F)cc1CN1CCC(O)(CN2CCCCC2)C1 (stereo unspecified) | MtTrpRS: -3.194%; ClpP1P2: 6.872%
* COc1cccc(-c2n[nH]cc2CNC2CCCN(C)C2)c1 (stereo unspecified) | MtTrpRS: -2.369%; ClpP1P2: 0.8741%
* Cc1nc2cc(O)nn2c(C)c1CCC(=O)NCCc1nccn1C | MtTrpRS: 1.363%; ClpP1P2: 0.09458%
* O=C(C1CCCO1)N1CCC(Cn2cc(C3CCCC3)nn2)CC1 (stereo unspecified) | MtTrpRS: -1.56%; ClpP1P2: -5.359%
* Cc1nc(CNC(=O)Nc2ccc(N(C)C)nc2)sc1C | MtTrpRS: -2.579%; ClpP1P2: -5.331%
* COCCN(C)C(C(=O)O)c1ccc(Cl)c(F)c1 (stereo unspecified) | MtTrpRS: -0.1501%; ClpP1P2: -7.426%
* O=C(NS(=O)(=O)c1ccccc1C(F)(F)F)c1cccc2c1OCCO2 | MtTrpRS: 4.242%; ClpP1P2: -6.568%
* CCc1nccc(CN2CCCC(c3nn(C)c(=O)n3CC)C2)n1 (stereo unspecified) | MtTrpRS: 0.5029%; ClpP1P2: -5.138%
* CCNC(=O)NC[C@H]1Cn2c(-c3ccccc3)cnc2CO1 | MtTrpRS: -5.083%; ClpP1P2: -3.218%
* Cc1cc(NC(=O)CN2CCCC2c2c(C)nn(C)c2C)on1 (stereo unspecified) | MtTrpRS: -6.789%; ClpP1P2: -9.669%
* CC(NC(N)=O)C(=O)NCc1cc(Br)ccc1F (stereo unspecified) | MtTrpRS: -2.434%; ClpP1P2: -12.51%
* O=C(C1CCC2(CCN(Cc3cccnc3)CC2)CO1)N1CCCC1 (stereo unspecified) | ClpP1P2: 11.54%
* COc1cccn(CC(=O)N(C)CCCOc2c(C)cccc2C)c1=O | MtTrpRS: 18.36%; ClpP1P2: -4.919%
* Cc1cnn(C2CCCN(C(=O)c3ccc(-n4ccnc4)cc3)C2)c1 (stereo unspecified) | MtTrpRS: -0.7099%; ClpP1P2: 3.501%
* Cn1cc(CN2CCCC23CCN(C(=O)c2ccncc2)CC3)cn1 | MtTrpRS: -1.221%; ClpP1P2: -0.9873%
* CCC(NC(=O)c1ccc2[nH]ccc2c1)C(=O)N1CCOCC1 (stereo unspecified) | MtTrpRS: 14.47%; ClpP1P2: -2.554%
* Cc1ccc(C(=O)NS(C)(=O)=O)cc1-n1cccc1 | MtTrpRS: -1.018%; ClpP1P2: 3.689%
* CN(C)C(=O)N1CC2(CCN(S(=O)(=O)C3CC3)CC2)c2ccccc21 | MtTrpRS: -5.353%; ClpP1P2: -14.2%
* CCCn1nccc1C(=O)N1CCCC(C(=O)CCc2ccccc2)C1 (stereo unspecified) | MtTrpRS: -3.098%; ClpP1P2: -13.02%
* COc1ccncc1NC(=O)C1(c2ccccc2)CC1 | MtTrpRS: 1.826%; ClpP1P2: -5.513%
* CCCn1ncc2c(C(=O)Nc3n[nH]c(SC)n3)cc(C3CC3)nc21 | MtTrpRS: -1.583%; ClpP1P2: 15.15%
* CN(C)Cc1nnc2n1CCN(c1cnccn1)CC2 | MtTrpRS: -8.251%; ClpP1P2: -3.881%
* COc1cc2c(c(OC)c1OC)CCN(CCn1nc(C)cc1C)CC2 | MtTrpRS: 2.056%; ClpP1P2: -4.137%
* COc1ccc(CN2C[C@H](N3CCCC3=O)[C@@H]3OCCC[C@@H]32)cc1 | MtTrpRS: 0.6342%; ClpP1P2: -0.7921%
* CC(C)(C)c1cnc(CN2C(=O)CC3(CCSC3)C2=O)o1 (stereo unspecified) | MtTrpRS: 0.5236%; ClpP1P2: 5.273%
* Cn1nc(COCC2CC2)c2c1CN(CC1CC1)CC2 | ClpP1P2: -11.57%
* O=C(CC1CC1)NC1CCc2c(ccc(=O)n2CC2CC2)C1 (stereo unspecified) | MtTrpRS: -1.34%; ClpP1P2: 0.4416%
* COc1ccc(CCNCc2c(C)nn(C)c2N(C)C)cc1OC | MtTrpRS: -2.684%; ClpP1P2: -18.84%
* CN(Cc1cn2ccccc2c1C#N)C1CCCN(c2cccnn2)C1 (stereo unspecified) | MtTrpRS: -0.3668%; ClpP1P2: -3.842%
* Cc1cc(N2CCCC(O)CC2)n2nc(C)c(C)c2n1 (stereo unspecified) | MtTrpRS: -1.212%; ClpP1P2: 7.004%

For reference, 3 entries once more:

compound	MtTrpRS	ClpP1P2
CCc1nccc(CN2CCCC(c3nn(C)c(=O)n3CC)C2)n1 (stereo unspecified)	0.5029%	-5.138%
Cc1cnn(C2CCCN(C(=O)c3ccc(-n4ccnc4)cc3)C2)c1 (stereo unspecified)	-0.7099%	3.501%
CN(C)Cc1nnc2n1CCN(c1cnccn1)CC2	-8.251%	-3.881%